Assay results

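Uptake of anthrax lethal toxin into cultured cells, read by FRET (460/530 nm ratio) and reported from the 460 nm channel; the cell line is not named here.
Each compound was tested as a concentration series from about 0.0005 to 40 µM.
The number is the fitted AC50 of the 460 nm signal alone; lower values mean a more potent effect. A falling signal goes with compounds filed as inhibitors or cytotoxic, a rising one with activators or fluorescent compounds (inferred from the filed classes).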

Values are in µM.
Common to all entries: measured here: 460 nm channel.
This is a side read-out of the assay, for part of the compounds, not drawn at random.
A potency from a partial, single-point or poor curve is only a rough figure.
The first word of each remark tells which way the curve ran; it can be opposite to the aim of the assay.

| # | Compound | AC50 (µM) | curve |
|---|---|---|---|
| 1 | `Fc1ccc(-c2nnc(-c3ccc(Cl)cc3Cl)o2)cc1` | 12.59 | falling, partial curve |
| 2 | `C[C@@H](O)[C@H]1C(=O)N2C(C(=O)O)=C(S[C@@H]3CN[C@H](C(=O)N(C)C)C3)[C@H](C)[C@H]12` | 0.631 | falling, partial curve |
| 3 | `Cc1ccccc1-c1ccc2ncnc(NCc3cccs3)c2c1` | 5.012 | rising, single point |
| 4 | `CC(C)C(=O)N1CCN(C2=NS(=O)(=O)c3ccccc32)CC1` | 5.012 | rising, single point |
| 5 | `CN1c2ccccc2C(C)(C)C12C=Cc1cc(O)ccc1O2` (centres undefined) | 19.95 | falling, single point |
| 6 | `O=C(O)CSSCC(=O)O` | 1 | rising, single point |
| 7 | `Oc1ccc2ccccc2c1C=NCc1c(O)ccc2ccccc12` | 1 | rising, single point |
| 8 | `N#Cc1cc2c(=O)n3ccccc3nc2n(Cc2cccnc2)c1=O` | 0.3981 | rising, partial curve |
| 9 | `CN(C(=O)COc1nnc(-c2cccs2)c(-c2cccs2)n1)c1ccccc1` | 6.31 | rising, partial curve |
| 10 | `Cc1nn(C(=O)c2ccco2)c(C)c1CN1C(=O)c2ccccc2C1=O` | 19.95 | rising, single point |
| 11 | `Cc1ccc(Nc2nnc(-c3ccc4c(c3)OCO4)o2)c(C)c1` | 0.7943 | falling, single point |
| 12 | `CCCn1c(SCC(N)=O)nnc1C(C)C` | 12.59 | falling, single point |
| 13 | `c1nnn(C23CC4CC(CC(C4)C2)C3)n1` | 25.12 | rising, single point |
| 14 | `CN(C)c1ncc2nc(-c3cc(F)cc(F)c3)c(=O)n(Cc3cccs3)c2n1` | 1 | rising, full curve |
| 15 | `Cc1ccc(NC(=O)CSc2nnc(Cn3cnc4ccccc43)o2)cc1` | 0.3981 | rising, partial curve |
| 16 | `CC(C)(C)OC(=O)N[C@@H](Cc1ccccc1)c1nnc(S(=O)(=O)Cc2ccccc2)o1` | 5.012 | falling, partial curve |
| 17 | `C[n+]1cc2c3c(ccc2c2ccc4cc5c(cc4c21)OCO5)OCO3` | 5.012 | falling, full curve |
| 18 | `CCOC(=O)C1C(c2ccccc2Cl)NC(=O)N(C)C1(O)C(F)(F)F` (centres undefined) | 1.995 | falling, full curve, poor fit |
| 19 | `Oc1cc2c(cc1O)CN(C(=S)NCCc1ccc(Cl)cc1)CCC2` | 15.85 | falling, partial curve |
| 20 | `CC(C)(C)NC(=O)Cn1ccc(=N)c2ccccc21` | 0.5012 | falling, full curve |
| 21 | `[C-]#[N+]/C(C#N)=C\c1cc(C(C)(C)C)c(O)c(C(C)(C)C)c1` | 0.07943 | falling, full curve |
| 22 | `O=C(O)CSc1nnc2c3ccccc3c3ccccc3c2n1` | 1 | rising, single point |
| 23 | `Cn1c(=O)c(-c2cc(F)cc(F)c2)nc2cnc(Oc3cccc(Cl)c3)nc21` | 12.59 | rising, partial curve |
| 24 | `CCCOC(=O)CSc1nnc(-c2cc(OC)c(OC)c(OC)c2)o1` | 12.59 | falling, partial curve |
| 25 | `CC(C)Cc1cc(C(=O)Nc2ccc3c(c2)OCO3)no1` | 6.31 | falling, partial curve, poor fit |
| 26 | `Cc1c(C(=O)Nc2ccccc2)sc2nc(-c3ccccc3)cn12` | 15.85 | falling, partial curve |
| 27 | `Cc1ccc(C2C3=C(CC(C)(C)CC3=O)N(CCN3CCOCC3)C3=C2C(=O)CC(C)(C)C3)cc1` | 3.981 | rising, full curve |
| 28 | `CCOc1ccc(NC(=O)CNC(=O)c2ccc(OC)c(OC)c2)cc1` | 1.259 | falling, full curve, poor fit |
| 29 | `CCC1CCCCN1C(=O)N[C@@H](Cc1ccccc1)C(=O)O` (some centres undefined) | 0.3162 | falling, full curve, poor fit |
| 30 | `CCCCn1c(SCC(=O)N(CC)C2CCS(=O)(=O)C2)nnc1C(CC)N(C)C` (centres undefined) | 0.1995 | rising, partial curve |
| 31 | `CC(C)c1ccc2c([Si](C)(C)C)c3c(nc2c1)-c1cccc(=O)n1C3` | 10 | rising, partial curve |
| 32 | `COc1cccc(Cn2c(=O)c(C)nc3cnc(Oc4ccccc4)nc32)c1` | 12.59 | rising, single point |
| 33 | `O=C(Nc1ccc(S(=O)(=O)N2CCCCCC2)cc1)c1ccco1` | 0.00631 | falling, full curve, poor fit |
| 34 | `CCN1CCCC1CNC(=O)c1cc2c(C)nc3ccccc3c2o1` (centres undefined) | 10 | falling, partial curve |
| 35 | `COc1cc2nc(SCC(=O)NCCc3ccccc3)n(Cc3ccco3)c(=O)c2cc1OC` | 3.162 | rising, partial curve |
| 36 | `CCC(C)COC(=O)C(C#N)c1nc2ccccc2nc1N1CCCCC1` (centres undefined) | 5.012 | falling, partial curve |
| 37 | `CCOc1cccc2cc(C(=O)Nc3nccs3)c(=O)oc12` | 3.162 | rising, single point |
| 38 | `Cn1c(CCNC(=O)c2ccco2)nc2cc(NC(=O)C3CCCCC3)ccc21` | 12.59 | rising, partial curve |
| 39 | `Nc1cc(S(N)(=O)=O)ccc1SSc1ccc(S(N)(=O)=O)cc1N` | 3.981 | falling, partial curve |
| 40 | `CCOc1ccc(C2=Nn3cnnc3SC2)cc1` | 0.003981 | falling, full curve, poor fit |
| 41 | `COc1ccc(Oc2ncc3nc(-c4cn(C)c5ccccc45)c(=O)n(CCC#N)c3n2)cc1` | 0.2512 | rising, full curve, poor fit |
| 42 | `CCOC(=O)c1c(NC(=O)Cc2cccs2)sc2c1CCCC2` | 12.59 | falling, partial curve |
| 43 | `COc1ccc(S(=O)(=O)N2CCCC(C(=O)N3CCN(C)CC3)C2)cc1C` (centres undefined) | 0.0631 | falling, full curve, poor fit |
| 44 | `CCN1C(=O)c2cccc3c(S(=O)(=O)Nc4nc(C)cs4)ccc1c23` | 10 | rising, single point |
| 45 | `CC(C)Oc1ccc(C(=O)N2CCCc3ccccc32)cc1` | 19.95 | falling, single point |
| 46 | `COc1ccc2ccccc2c1C1CC(=O)N2CN(C3CCCCC3)CSC2=C1C#N` (centres undefined) | 10 | falling, partial curve |
| 47 | `N#CCCS(=O)(=O)c1nnnn1-c1ccccc1` | 12.59 | falling, partial curve |
| 48 | `COC(=O)c1cc2c(C)nn(-c3ccccc3)c2s1` | 3.981 | falling, full curve, poor fit |
| 49 | `CC(=O)N1CCC2(CCCN(C(=O)Nc3cccc(F)c3)C2)CC1` | 0.631 | falling, full curve |
| 50 | `COc1ccc(Oc2ncc3nc(-c4cccs4)c(=O)n(-c4ccccc4)c3n2)cc1` | 12.59 | rising, partial curve |
| 51 | `CC1CCN(S(=O)(=O)N2CCC(C(=O)NCc3cccs3)CC2)CC1` | 0.5012 | falling, partial curve, poor fit |
| 52 | `CCOC(=O)c1ccc(NC(=O)CCc2nc(-c3ccccc3)no2)cc1` | 0.01 | falling, full curve, poor fit |

The first 5 entries again:

| Compound | AC50 (µM) | curve |
|---|---|---|
| `Fc1ccc(-c2nnc(-c3ccc(Cl)cc3Cl)o2)cc1` | 12.59 | falling, partial curve |
| `C[C@@H](O)[C@H]1C(=O)N2C(C(=O)O)=C(S[C@@H]3CN[C@H](C(=O)N(C)C)C3)[C@H](C)[C@H]12` | 0.631 | falling, partial curve |
| `Cc1ccccc1-c1ccc2ncnc(NCc3cccs3)c2c1` | 5.012 | rising, single point |
| `CC(C)C(=O)N1CCN(C2=NS(=O)(=O)c3ccccc32)CC1` | 5.012 | rising, single point |
| `CN1c2ccccc2C(C)(C)C12C=Cc1cc(O)ccc1O2` (centres undefined) | 19.95 | falling, single point |

The results are deposited in PubChem (AID912; NCATS, 2007).